# Experiment: Iron excretion after oral dosing, sample weighed in grams (Table 2, headed Urine; evidently feces)
# Type: in vivo, rats
# Settings: one gram sample of 15% iron
# Protocol: Bioavailability: One gram samples of each of the above iron vanillin chelates and ferrous sulfate sales were administered orally to rats as a slurry consisting of one gram of sample contained in 4 ml of water. The samples were given via a syringe fitted with a balled needle and injected into the stomach of the animals. Each one gram sample of 15% iron would deliver 150 mg of Fe which is ten times the recommended daily allowance of iron for a human being of average size. Obviously, such a dosage is many times higher than required for the test animals considering that the rats weighed an average of about 125 grams each. One sample of two grams of chelate suspended as a slurry in 8 ml of water was found too be too much volume and overfilled the stomach of the rat resulting in the loss of some of the dosage.
# The animals were observed over a two day (48 hour) period and their urine and feces were collected. At the end of the 48 hour period the animals were sacrificed and blood samples were taken.
# There follows a comparison of the urine, feces and blood tests taken from the rats at 24 and 48 hours post dosage.
substance,measurement,setting,value
ferrous sulfate [FeSO4],Urine: Total Gm Sample,24 hours,1.5 g
same,Urine: Total Gm Sample,48 hours,2.6 g

# From US5596016A, “1,2-disubstituted aromatic chelates” (Albion International, Inc., priority 1994, dated 1997)
